Results deposited as PubChem BioAssay AID1259405 (NCATS, 2018)
Purpose: 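Knock-downs that lift recombinant protein yield in hamster ovary cells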 (primary screen). System: Chinese hamster CHO-K1 ovary cells with stable secreted eGFP expression. Reagent: single siRNA against mouse genes, 0.8 pmol siRNA per well (2 µl of 400 nM stock). Timing: 3 days. Detection: 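Percent of the per-plate non-targeting control median for intracellular GFP per well by laser scanning cytometry and for cell viability by ATP luminescence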. Scale: GFP, % of control: higher = more GFP per well, higher productivity; viability (ATP), % of control: higher = more viable cells (more ATP). Rule for the call: 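Called active when intracellular GFP, relative to negative control, is at or above 120%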.
This is one part, drawn at random, of about 50,000 reagents tested. In the full data, about 4,000 (8%) were called active. 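Mouse siRNA library applied to hamster cells; one well for each siRNA.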 The numbers tell different reagents against one gene apart.

gene symbol	reagent	GFP, % of control	viability (ATP), % of control	Call
Tnfrsf19 (GeneID 29820)	1	66.7	72.1	inactive
Tnfrsf19 (GeneID 29820)	2	37.9	55.9	inactive
Tnfrsf19 (GeneID 29820)	3	72.2	63.8	inactive
Hspb8 (GeneID 80888)	1	166	92.7	active
Hspb8 (GeneID 80888)	2	129	77.2	active
Hspb8 (GeneID 80888)	3	100	114	inactive
Mrps28 (GeneID 66230)	1	74.4	56.3	inactive
Mrps28 (GeneID 66230)	2	97.6	89.2	inactive
Mrps28 (GeneID 66230)	3	58	53.5	inactive
Dexi (GeneID 58239)	1	95	97.9	inactive
Dexi (GeneID 58239)	2	124	106	active
Dexi (GeneID 58239)	3	121	47.2	active
Or4c29 (GeneID 258453)	1	54.6	90.8	inactive
Or4c29 (GeneID 258453)	2	107	70.8	inactive
Or4c29 (GeneID 258453)	3	58.9	90.5	inactive
Or8i2 (GeneID 258763)	1	57.3	49.6	inactive
Or8i2 (GeneID 258763)	2	95.3	93.3	inactive
Or8i2 (GeneID 258763)	3	78.8	80.3	inactive
Aimp1 (GeneID 13722)	1	84.5	78.4	inactive
Aimp1 (GeneID 13722)	2	73.7	54.9	inactive
Cep78 (GeneID 208518)	1	93.1	83.6	inactive
Cep78 (GeneID 208518)	2	136	102	active
Cep78 (GeneID 208518)	3	124	103	active
Top2b (GeneID 21974)	1	75.2	87.4	inactive
Top2b (GeneID 21974)	2	123	113	active
Top2b (GeneID 21974)	3	79.3	74.4	inactive
Spink1 (GeneID 20730)	1	125	99	active
Spink1 (GeneID 20730)	2	37.1	69.1	inactive
Spink1 (GeneID 20730)	3	105	59.2	inactive
Rinl (GeneID 320435)	1	96	96.8	inactive
Rinl (GeneID 320435)	2	76.2	87.8	inactive
Rinl (GeneID 320435)	3	82.8	111	inactive
Tmem214 (GeneID 68796)	1	154	109	active
Tmem214 (GeneID 68796)	2	77.4	69.8	inactive
Tmem214 (GeneID 68796)	3	89.7	114	inactive
Or6c70 (GeneID 259165)	1	67.5	58.7	inactive
Or6c70 (GeneID 259165)	2	92.8	30.3	inactive
Or6c70 (GeneID 259165)	3	88.2	59.5	inactive
Zfp354b (GeneID 27274)	1	56.6	63.5	inactive
Zfp354b (GeneID 27274)	2	53.4	77	inactive
Zfp354b (GeneID 27274)	3	86.4	68.7	inactive
Fgg (GeneID 99571)	1	62.6	70.3	inactive
Fgg (GeneID 99571)	2	62.4	69.4	inactive
Fgg (GeneID 99571)	3	91.2	81.6	inactive
Smap2 (GeneID 69780)	1	204	95.7	active
Smap2 (GeneID 69780)	2	68.5	76	inactive
Smap2 (GeneID 69780)	3	57.4	64.6	inactive
Smap2 (GeneID 69780)	4	123	106	active
Smap2 (GeneID 69780)	5	81.2	123	inactive
Smap2 (GeneID 69780)	6	93.3	85.3	inactive
Or6c212 (GeneID 258548)	1	67.2	82.3	inactive
Or6c212 (GeneID 258548)	2	34.3	35.5	inactive
Or6c212 (GeneID 258548)	3	84.2	94.2	inactive
Acsl6 (GeneID 216739)	1	77.5	53.9	inactive
Acsl6 (GeneID 216739)	2	59	72.9	inactive
Acsl6 (GeneID 216739)	3	29.7	62.5	inactive
Rab39b (GeneID 67790)	1	90.5	110	inactive
Rab39b (GeneID 67790)	2	73.9	73.6	inactive
Rab39b (GeneID 67790)	3	69	62.3	inactive
H2ac18 (GeneID 15267)	1	156	102	active
H2ac18 (GeneID 15267)	2	101	101	inactive
H2ac18 (GeneID 15267)	3	55.8	57.2	inactive

Part of the list above, reduced to “viability (ATP), % of control”.
Smap2 (GeneID 69780) #6	85.3
Or6c212 (GeneID 258548) #1	82.3
Or6c212 (GeneID 258548) #2	35.5
Or6c212 (GeneID 258548) #3	94.2
Acsl6 (GeneID 216739) #1	53.9
Acsl6 (GeneID 216739) #2	72.9
Acsl6 (GeneID 216739) #3	62.5
Rab39b (GeneID 67790) #1	110

Additional entries follow:
gene symbol	reagent	GFP, % of control	viability (ATP), % of control	Call
Or8s2 (GeneID 259038)	1	96.6	81.3	inactive
Or8s2 (GeneID 259038)	2	83.1	85.4	inactive
Or8s2 (GeneID 259038)	3	98.3	71.8	inactive
Psca (GeneID 72373)	1	21.5	25.7	inactive
Psca (GeneID 72373)	2	14.5	24.8	inactive
Psca (GeneID 72373)	3	75.8	97.1	inactive
Or9e1 (GeneID 258530)	1	43.6	39.6	inactive
Or9e1 (GeneID 258530)	2	88.9	71	inactive
Or9e1 (GeneID 258530)	3	54.7	60.6	inactive
Cavin4 (GeneID 68016)	1	32.4	36.9	inactive
Cavin4 (GeneID 68016)	2	87.7	81.9	inactive
Cavin4 (GeneID 68016)	3	70.4	68.1	inactive
Alas1 (GeneID 11655)	1	80.5	71.3	inactive
Alas1 (GeneID 11655)	2	48.9	74.8	inactive
Alas1 (GeneID 11655)	3	79.4	113	inactive
Rab11fip3 (GeneID 215445)	1	99.7	101	inactive
Rab11fip3 (GeneID 215445)	2	77.4	82.6	inactive
Rab11fip3 (GeneID 215445)	3	80.7	110	inactive
Bmper (GeneID 73230)	1	86.5	66.3	inactive
Bmper (GeneID 73230)	2	69.2	73.2	inactive
Bmper (GeneID 73230)	3	127	126	active
Prkar2b (GeneID 19088)	1	82.9	47.3	inactive
Prkar2b (GeneID 19088)	2	75.7	82.4	inactive
Wasf1 (GeneID 83767)	1	81.9	64.5	inactive
Wasf1 (GeneID 83767)	2	99.3	66.8	inactive
Wasf1 (GeneID 83767)	3	62.8	78.4	inactive
Cfap161 (GeneID 75556)	1	86.2	87.5	inactive
Cfap161 (GeneID 75556)	2	55.1	42.4	inactive
Cfap161 (GeneID 75556)	3	52.7	88.8	inactive
Klhl20 (GeneID 226541)	1	70.8	81.9	inactive
Klhl20 (GeneID 226541)	2	80.4	54.1	inactive
Mdh1 (GeneID 17449)	1	86.3	101	inactive
Mdh1 (GeneID 17449)	2	86.2	76.5	inactive
Mdh1 (GeneID 17449)	3	74.2	97.5	inactive
Tbcel (GeneID 272589)	1	137	95.1	active
Tbcel (GeneID 272589)	2	116	94.1	inactive
Tbcel (GeneID 272589)	3	53.7	65.3	inactive
Ccdc82 (GeneID 66396)	1	59	92.1	inactive
Ccdc82 (GeneID 66396)	2	22.3	19.8	inactive
Ccdc82 (GeneID 66396)	3	96.6	72.6	inactive
Mgll (GeneID 23945)	1	53.8	60.1	inactive
Mgll (GeneID 23945)	2	100	124	inactive
Mgll (GeneID 23945)	3	50.9	55.4	inactive
Arsk (GeneID 77041)	1	80.3	85.8	inactive
Arsk (GeneID 77041)	2	41.6	37.8	inactive
Arsk (GeneID 77041)	3	119	89.7	inactive
